Chains of the proteins cited; added tags and fusions are not shown. Lines headed by an entry give the natural chain unless they say otherwise; changes in a name come on top.
UniProt Q46864: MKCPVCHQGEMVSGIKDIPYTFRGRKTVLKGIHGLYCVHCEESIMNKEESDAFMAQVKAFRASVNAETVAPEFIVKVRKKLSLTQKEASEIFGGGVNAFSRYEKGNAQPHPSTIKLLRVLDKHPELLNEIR

In doi:10.1101/2023.09.23.559088:

Experiments:
[1] = target: MqsA (Escherichia coli K-12 MG1655) (UniProt Q46864); test: DNase I footprinting; conditions: residues 1-131; letters put together from the description
[2] = target: MqsA (Escherichia coli K-12 MG1655) (UniProt Q46864); test: EMSA; conditions: residues 1-131; letters put together from the description

Row | Sequence | binding result [1] | binding result [2]
1 | GATTGCGTAGCAGGGCCACTGGTATCTGCCGGTATCACCGACATTAACATTGAAGACGACCAGGGCATTCACGTCCGCCTGATAGTTCGTGATGCCGAAGGTCGGATGGTTGGCGGGCATGGAACTTTGAACCGGACGCCGGTGAAGGTTTTAACCGCTATATCCACAGGTCAGGCATCCGCACCGACACCTTCCCCCGCTGACTCCGAATCATTTACCAGCAACATTTCACCTTCCCAAACGCGCTTTATTACCTCATACGCCAG (double strand) [FAM-yfjY promoter footprint probe] | binds | –
2 | GATTGCGTAGCAGGGCCACTGGTATCTGCCGGTATCACCGACATTAACATTGAAGACGACCAGGGCATTCACGTCCGCCTGATAGTTCGTGATGCCGAAGGTCGGATGGTTGGCGGGCATGGAACTTTGAACCGGACGCCGGTGAAGGTTTTAACCGCTATATCCACAGGTCAGGCATCCGCACCGACACCTTCCCCCGCTGACTCCGAATCATTTACCAGCAACATTTCACCTTCCCAAACGCGCTTTATTACCTCATACGCCAG (double strand) [yfjY (lfgA) promoter probe, wild type] | – | binds
